Test results from the supplement of paper PMC8728848.
The other results are listed elsewhere or left out.

Key:
Test in all cases: glycan array binding signal (z-score within array); higher = stronger binding
Conditions in all cases: glycan notation: IUPAC condensed, linker removed
[1] = molecular target: Gal3S(b1-3)[Fuc(a1-4)]GlcNAc
Procedure, shortened: (§1)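 Glycan array binding is given as a within-array Z-score, which can be read as non-binding when negative. The arrays, 3228 of them, came from the Consortium for Functional Glycomics database and were retained only where the protein sequence was available. Z-scores were averaged across arrays of the same protein sequence at different concentrations or buffers and across linkers.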

[2] = molecular target: Gal3S(b1-4)Glc
Procedure, shortened: as §1

[3] = molecular target: Gal3S(b1-4)Glc6S
Procedure, shortened: as §1

[4] = molecular target: Gal3S(b1-4)GlcNAc
Procedure, shortened: as §1

[5] = molecular target: Gal3S(b1-4)[Fuc(a1-3)]Glc6S
Procedure, shortened: as §1

[6] = molecular target: Gal3S(b1-4)[Fuc(a1-3)]GlcNAc
Procedure, shortened: as §1

[7] = molecular target: Gal3S(b1-4)[Fuc(a1-3)]GlcNAc6S
Procedure, shortened: as §1

[8] = molecular target: Gal3S4S(b1-4)GlcNAc
Procedure, shortened: as §1

[9] = molecular target: Gal3S6S(b1-4)GlcNAc
Procedure, shortened: as §1

[10] = molecular target: Gal3S6S(b1-4)GlcNAc6S
Procedure, shortened: as §1

[11] = molecular target: Gal4S(b1-4)GlcNAc
Procedure, shortened: as §1

[12] = molecular target: Gal4S6S(b1-4)GlcNAc
Procedure, shortened: as §1

[13] = molecular target: Gal6P(b1-4)GlcNAc
Procedure, shortened: as §1

[14] = molecular target: Gal6S(b1-3)GlcNAc
Procedure, shortened: as §1

[15] = molecular target: Gal6S(b1-3)GlcNAc6S
Procedure, shortened: as §1

[16] = molecular target: Gal6S(b1-4)Glc
Procedure, shortened: as §1

[17] = molecular target: Gal6S(b1-4)Glc6S
Procedure, shortened: as §1

[18] = molecular target: Gal6S(b1-4)GlcNAc
Procedure, shortened: as §1

[19] = molecular target: Gal6S(b1-4)GlcNAc6S
Procedure, shortened: as §1

[20] = molecular target: GalNAc(a1-3)Gal
Procedure, shortened: as §1

[21] = molecular target: GalNAc(a1-3)GalNAc
Procedure, shortened: as §1

[22] = molecular target: GalNAc(a1-3)GalNAc(b1-3)Gal(a1-4)Gal(b1-4)Glc
Procedure, shortened: as §1

[23] = molecular target: GalNAc(a1-3)GalNAc(b1-3)Gal(a1-4)Gal(b1-4)GlcNAc
Procedure, shortened: as §1

[24] = molecular target: GalNAc(b1-3)Gal
Procedure, shortened: as §1

[25] = molecular target: GalNAc(b1-3)Gal(a1-4)Gal(b1-4)GlcNAc
Procedure, shortened: as §1

[26] = molecular target: GalNAc(b1-3)Gal(a1-4)Gal(b1-4)GlcNAc(b1-3)Gal(b1-4)Glc
Procedure, shortened: as §1

[27] = molecular target: GalNAc(b1-3)Gal(a1-6)Gal(b1-4)Glc
Procedure, shortened: as §1

[28] = molecular target: GalNAc(b1-3)GalNAc
Procedure, shortened: as §1

[29] = molecular target: GalNAc(b1-3)GlcNAc
Procedure, shortened: as §1

[30] = molecular target: GalNAc(b1-4)Gal(b1-4)Glc
Procedure, shortened: as §1

[31] = molecular target: GalNAc(b1-4)GlcNAc
Procedure, shortened: as §1

[32] = molecular target: GalNAc(b1-4)GlcNAc(b1-2)Man
Procedure, shortened: as §1

[33] = molecular target: GalNAc(b1-4)GlcNAc(b1-2)Man(a1-3)[GalNAc(b1-4)GlcNAc(b1-2)Man(a1-6)]Man(b1-4)GlcNAc(b1-4)GlcNAc
Procedure, shortened: as §1

[34] = molecular target: GalNAc(b1-4)GlcNAc(b1-3)GalNAc(b1-4)GlcNAc
Procedure, shortened: as §1

[35] = molecular target: GalNAc(b1-4)GlcNAc6S
Procedure, shortened: as §1

[36] = molecular target: GalNAc(b1-6)GalNAc
Procedure, shortened: as §1

[37] = molecular target: GalNAc3S(b1-4)GlcNAc
Procedure, shortened: as §1

[38] = molecular target: GalNAc3S(b1-4)GlcNAc3S
Procedure, shortened: as §1

[39] = molecular target: GalNAc3S(b1-4)[Fuc(a1-3)]GlcNAc
Procedure, shortened: as §1

[40] = molecular target: GalNAc4S6S(b1-4)GlcNAc
Procedure, shortened: as §1

[41] = molecular target: GalNAc6S(b1-4)GlcNAc
Procedure, shortened: as §1

[42] = molecular target: Glc(a1-4)Glc
Procedure, shortened: as §1

[43] = molecular target: Glc(a1-4)Glc(a1-4)Glc(a1-4)Glc
Procedure, shortened: as §1

[44] = molecular target: Glc(a1-6)Glc(a1-6)Glc
Procedure, shortened: as §1

[45] = molecular target: Glc(a1-6)Glc(a1-6)Glc(a1-6)Glc
Procedure, shortened: as §1

B1: AT5G24760(45) (Arabidopsis thaliana), Q8LEB2 (protein)
chain: MSASSSSFEQPQVITCNAAVAWRAGEPLVMEEVEVSPPQPLEIRIKVVCTSLCRSDLSAWESQSLLPRIFGHEAAGIVESIGEGVTEFEKGDHVLAVFTGECGSCRHCISGKSNMCQVLGMERKGLMHSDQKTRFSIKGKPVYHYCAVSSFSEYTVVHSGCAVKVDPLAPLHKICLLSCGVAAGLGAAWNVADVQKGSSVVIFGLGTVGLSVAQGAKLRGAAQILGVDINPAKAEQAKTFGVTDFINSNDLSEPIPQVIKRMTGGGADFSFECVGDTGIATTALQSCSDGWGMTVTLGVPKAKPEVSAHYGLFLSGKSLKGTLFGGWKPKSDLPSLIDKYMNKEIMIDEFITHNLSFDEINKAFVLMREGKCLRCVLHMPK
In the case of B1, the “glycan array binding signal (z-score)” value [1] is reported as 0.437, the “glycan array binding signal (z-score)” value [2] is reported as -1.04 and the “glycan array binding signal (z-score)” value [3] is reported as -0.368. The “glycan array binding signal (z-score)” value [4] was -0.185, the “glycan array binding signal (z-score)” value [5] was 2.68 and the “glycan array binding signal (z-score)” value [6] was -0.085. For the same binder, the “glycan array binding signal (z-score)” value [7] was 0.449, the “glycan array binding signal (z-score)” value [8] was -0.005 and the “glycan array binding signal (z-score)” value [9] was 0.315. For the same binder, the “glycan array binding signal (z-score)” value [10] was -0.871, the “glycan array binding signal (z-score)” value [11] was -0.737 and the “glycan array binding signal (z-score)” value [12] was 2.07. The “glycan array binding signal (z-score)” value [13] was -0.869, the “glycan array binding signal (z-score)” value [14] was -0.214 and the “glycan array binding signal (z-score)” value [15] was -0.455. For the same binder, the “glycan array binding signal (z-score)” value [16] was -0.157, the “glycan array binding signal (z-score)” value [17] was 0.137 and the “glycan array binding signal (z-score)” value [18] was -0.864. For the same binder, the “glycan array binding signal (z-score)” value [19] was -0.4, the “glycan array binding signal (z-score)” value [20] was 0.235 and the “glycan array binding signal (z-score)” value [21] was -0.754. The “glycan array binding signal (z-score)” value [22] was 0.166, the “glycan array binding signal (z-score)” value [23] was -0.035 and the “glycan array binding signal (z-score)” value [24] was 0.412. The “glycan array binding signal (z-score)” value [25] was 1.38, the “glycan array binding signal (z-score)” value [26] was -0.632 and the “glycan array binding signal (z-score)” value [27] was -0.337. For the same binder, the “glycan array binding signal (z-score)” value [28] was -0.086, the “glycan array binding signal (z-score)” value [29] was 0.645 and the “glycan array binding signal (z-score)” value [30] was 1.03. For the same binder, the “glycan array binding signal (z-score)” value [31] was 3.23, the “glycan array binding signal (z-score)” value [32] was 0.123 and the “glycan array binding signal (z-score)” value [33] was -0.34. The “glycan array binding signal (z-score)” value [34] was 0.752, the “glycan array binding signal (z-score)” value [35] was 1.24 and the “glycan array binding signal (z-score)” value [36] was 0.667. The “glycan array binding signal (z-score)” value [37] was 1.1, the “glycan array binding signal (z-score)” value [38] was -0.504 and the “glycan array binding signal (z-score)” value [39] was 0.319. The “glycan array binding signal (z-score)” value [40] was 0.19, the “glycan array binding signal (z-score)” value [41] was -0.477 and the “glycan array binding signal (z-score)” value [42] was 0.644. For the same binder, the “glycan array binding signal (z-score)” value [43] was -0.914, the “glycan array binding signal (z-score)” value [44] was -0.404 and the “glycan array binding signal (z-score)” value [45] was 0.911.
